Test results as given in patent publication US20160176970A1 (published 2016).
These are yes or no findings as the source states them, for the method shown. Some entries that bind do so weakly or less than the wild type. Each block holds one binder with its values, some of them ahead of it.

Sequences of proteins named here, by UniProt entry; tags and fusion partners are left off. A change or cut given only in a name is not applied to a line headed by its entry.
UniProt P17301: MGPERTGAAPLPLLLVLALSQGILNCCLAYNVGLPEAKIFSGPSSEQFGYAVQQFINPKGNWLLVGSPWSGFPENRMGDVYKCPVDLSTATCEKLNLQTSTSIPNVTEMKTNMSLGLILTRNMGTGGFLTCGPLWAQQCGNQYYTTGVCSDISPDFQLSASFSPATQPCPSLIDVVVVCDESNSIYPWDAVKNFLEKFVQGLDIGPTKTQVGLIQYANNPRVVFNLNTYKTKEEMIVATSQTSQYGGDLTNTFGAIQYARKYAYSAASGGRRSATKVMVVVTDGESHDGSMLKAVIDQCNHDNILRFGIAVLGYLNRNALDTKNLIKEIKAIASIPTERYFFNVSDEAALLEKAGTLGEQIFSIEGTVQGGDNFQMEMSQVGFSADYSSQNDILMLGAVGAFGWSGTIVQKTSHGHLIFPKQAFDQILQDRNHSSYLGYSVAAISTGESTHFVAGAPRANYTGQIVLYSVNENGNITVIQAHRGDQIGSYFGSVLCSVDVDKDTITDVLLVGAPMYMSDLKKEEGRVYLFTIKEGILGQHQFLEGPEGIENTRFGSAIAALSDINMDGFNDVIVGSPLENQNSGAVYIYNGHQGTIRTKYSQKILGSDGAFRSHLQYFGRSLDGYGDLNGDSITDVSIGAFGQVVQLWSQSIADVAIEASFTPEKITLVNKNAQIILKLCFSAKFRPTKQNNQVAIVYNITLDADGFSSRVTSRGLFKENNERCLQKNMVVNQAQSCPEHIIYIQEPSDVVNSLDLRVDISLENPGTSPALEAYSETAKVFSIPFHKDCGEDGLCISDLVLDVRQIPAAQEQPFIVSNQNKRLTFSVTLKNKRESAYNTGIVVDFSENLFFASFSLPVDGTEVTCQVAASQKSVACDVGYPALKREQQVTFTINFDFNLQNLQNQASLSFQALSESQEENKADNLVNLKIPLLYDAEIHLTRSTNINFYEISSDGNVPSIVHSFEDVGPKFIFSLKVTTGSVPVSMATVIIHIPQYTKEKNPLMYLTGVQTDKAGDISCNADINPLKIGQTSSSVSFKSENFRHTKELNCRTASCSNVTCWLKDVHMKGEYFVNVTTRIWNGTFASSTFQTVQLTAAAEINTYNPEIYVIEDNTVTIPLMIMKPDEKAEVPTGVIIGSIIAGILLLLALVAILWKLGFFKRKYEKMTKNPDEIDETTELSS

Key:
[1] = molecular target: integrin α2 I domain (recombinant, analyte of the Biacore experiments) (human) (UniProt P17301); assay: SPR Biacore 3000; TMC2206 captured by anti-human Fc (MAB1302), I domain bound, Fab injected
[2] = molecular target: integrin α2 I domain (recombinant, analyte of the Biacore experiments) (human) (UniProt P17301); assay: SPR Biacore; TMC2206 captured by anti-human Fc, I domain bound, Fab injected
[3] = molecular target: integrin α2 I domain (recombinant, analyte of the Biacore experiments) (human) (UniProt P17301); assay: SPR Biacore 3000
[4] = molecular target: integrin α2 I domain (recombinant, analyte of the Biacore experiments) (human) (UniProt P17301); assay: SPR Biacore 3000; Fab amine-coupled at 500 RU, I domain captured, TMC2206 injected
[5] = molecular target: integrin α2 I domain (recombinant, analyte of the Biacore experiments) (human) (UniProt P17301); assay: SPR Biacore; Fab immobilised, I domain captured, TMC2206 injected
[6] = molecular target: integrin α2 I domain (recombinant, analyte of the Biacore experiments) (human) (UniProt P17301); assay: SPR Biacore, dissociation constants (FIG. 11)

binding [1]: binds
binding [2]: binds
binding [3]: binds
B1: chimeric anti α2-integrin-Fab (Fab, V domains shown)
VH: QVQLHQPGAELVKPGAPVKLSCKASGYTFTSYWMNWVKQRPGRGLEWIGRIDPSDSETHYNQKFKDKATLTVDKSSSTAYIQLSSLTSEDSAVYYCAKVGRGYFDYWGQGTTLTVSS
VL: NIVLTQSPASLAVSLGQRATISCRASESVESYGNSFIYWYQQKPGQAPKLLIYLASNLASGVPARFSGSGSRTDFTLTIDPVEADDAATYYCQQNNEDPYTFGGGTKLEIKR

binding [4]: binds
binding [5]: binds
binding [6]: binds
B2: TMC2206, humanized hIgG4 anti-alpha 2 integrin antibody (the comparator) (antibody, V domains shown)
VH: QVQLQESGPGLVKPSETLSLTCTVSGFSLTNYGIHWIRQPPGKGLEWLGVIWARGFTNYNSALMSRLTISKDNSKNQVSLKLSSVTAADTAVYYCARANDGVYYAMDYWGQGTLVTVSS
VL: DFVMTQSPAFLSVTPGEKVTITCSAQSSVNYIHWYQQKPDQAPKKLIYDTSKLASGVPSRFSGSGSGTDYTFTISSLEAEDAATYYCQQWTTNPLTFGQGTKVEIKR
